Read-outs that look alike come from different tables or passages of the source. These are yes or no findings as the source states them, for the method shown. Binding seen in cells or lysates may run through a third protein. These calls come from enrichment with a bait or labelling near it, and not all partners need be listed. For some of these results: No binding means not detected with the bait.
Tests used:
[1] = biological target: TPLATE-GS^rhino (A. thaliana) (UniProt F4J8D3); test: affinity purification with mass spectrometry
[2] = biological target: TPLATE-linkerTurboID (A. thaliana) (UniProt F4J8D3); test: proximity labelling
[3] = biological target: TPLATE-linkerBioID2 (A. thaliana) (UniProt F4J8D3); test: proximity labelling
[4] = biological target: TPLATE-linkerBioID (A. thaliana) (UniProt F4J8D3); test: proximity labelling
[5] = biological target: TPLATE-linkerTurboID (A. thaliana) (UniProt F4J8D3); test: proximity labelling; remark: listed apart in the source
[6] = biological target: TPLATE-BioID (A. thaliana) (UniProt F4J8D3); test: proximity labelling
[7] = biological target: NFR5-TurboID (Lotus japonicus) (UniProt Q70KR1); test: proximity labelling

By UniProt entry, the sequences of proteins in these tests, tags left out. Where a name states a change or a piece, a line headed by the entry shows the natural chain unless it says otherwise. Residues count along the entry.
UniProt F4J8D3: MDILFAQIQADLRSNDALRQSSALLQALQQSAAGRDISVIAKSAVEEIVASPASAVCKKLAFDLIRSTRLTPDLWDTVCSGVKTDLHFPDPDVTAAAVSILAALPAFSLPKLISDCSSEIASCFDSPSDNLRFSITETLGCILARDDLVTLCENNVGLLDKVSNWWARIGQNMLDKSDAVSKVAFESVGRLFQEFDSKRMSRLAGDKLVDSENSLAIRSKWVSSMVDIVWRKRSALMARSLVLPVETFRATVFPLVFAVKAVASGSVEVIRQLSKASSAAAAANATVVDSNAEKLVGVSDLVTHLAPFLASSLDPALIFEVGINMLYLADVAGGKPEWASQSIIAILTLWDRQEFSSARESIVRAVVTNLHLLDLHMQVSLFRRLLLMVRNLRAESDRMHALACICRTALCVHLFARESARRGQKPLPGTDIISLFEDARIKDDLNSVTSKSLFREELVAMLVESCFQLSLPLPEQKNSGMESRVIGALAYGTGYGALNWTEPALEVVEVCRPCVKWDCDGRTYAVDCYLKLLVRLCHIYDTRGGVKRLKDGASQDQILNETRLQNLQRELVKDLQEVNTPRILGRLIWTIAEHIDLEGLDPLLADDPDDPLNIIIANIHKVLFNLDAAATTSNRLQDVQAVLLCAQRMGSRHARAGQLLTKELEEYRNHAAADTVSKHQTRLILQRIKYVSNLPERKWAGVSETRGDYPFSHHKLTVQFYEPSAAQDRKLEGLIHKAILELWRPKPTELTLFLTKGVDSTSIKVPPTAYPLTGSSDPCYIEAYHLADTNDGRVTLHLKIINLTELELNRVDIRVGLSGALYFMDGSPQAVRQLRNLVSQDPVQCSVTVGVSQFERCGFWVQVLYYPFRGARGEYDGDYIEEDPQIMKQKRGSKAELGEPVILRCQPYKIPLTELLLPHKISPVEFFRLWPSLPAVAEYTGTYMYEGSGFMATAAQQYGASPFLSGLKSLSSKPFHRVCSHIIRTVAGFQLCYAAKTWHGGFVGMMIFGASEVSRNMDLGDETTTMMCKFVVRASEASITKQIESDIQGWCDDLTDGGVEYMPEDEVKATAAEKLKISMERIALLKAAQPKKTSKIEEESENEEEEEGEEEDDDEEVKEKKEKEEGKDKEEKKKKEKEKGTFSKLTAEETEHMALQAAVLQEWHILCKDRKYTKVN
UniProt C0LGT6, residues 25-1031: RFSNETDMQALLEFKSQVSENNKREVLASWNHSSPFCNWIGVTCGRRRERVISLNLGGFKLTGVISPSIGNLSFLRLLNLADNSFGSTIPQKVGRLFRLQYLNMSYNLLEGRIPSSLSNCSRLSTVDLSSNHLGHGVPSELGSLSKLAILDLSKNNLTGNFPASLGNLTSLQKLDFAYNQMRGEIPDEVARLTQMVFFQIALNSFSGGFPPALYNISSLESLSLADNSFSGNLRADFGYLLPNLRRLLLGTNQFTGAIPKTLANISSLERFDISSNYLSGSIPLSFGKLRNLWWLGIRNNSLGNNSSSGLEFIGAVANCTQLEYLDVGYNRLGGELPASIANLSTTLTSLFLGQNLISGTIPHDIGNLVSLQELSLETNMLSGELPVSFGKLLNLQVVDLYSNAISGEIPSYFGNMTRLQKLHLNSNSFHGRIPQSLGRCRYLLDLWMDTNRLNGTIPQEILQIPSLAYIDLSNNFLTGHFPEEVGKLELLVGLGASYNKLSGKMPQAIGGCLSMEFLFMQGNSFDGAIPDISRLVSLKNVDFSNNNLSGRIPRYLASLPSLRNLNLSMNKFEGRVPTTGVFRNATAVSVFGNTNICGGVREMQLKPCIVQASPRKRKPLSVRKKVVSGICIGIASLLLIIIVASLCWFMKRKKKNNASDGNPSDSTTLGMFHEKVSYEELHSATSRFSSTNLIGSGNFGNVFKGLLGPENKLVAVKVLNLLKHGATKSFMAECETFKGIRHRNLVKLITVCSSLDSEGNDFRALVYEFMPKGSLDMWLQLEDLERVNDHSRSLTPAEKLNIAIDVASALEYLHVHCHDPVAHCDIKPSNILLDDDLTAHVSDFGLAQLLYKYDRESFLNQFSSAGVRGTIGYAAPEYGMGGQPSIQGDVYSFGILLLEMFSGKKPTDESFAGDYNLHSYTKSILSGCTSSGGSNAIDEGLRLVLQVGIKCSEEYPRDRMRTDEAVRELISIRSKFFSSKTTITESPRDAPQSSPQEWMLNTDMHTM
UniProt Q8S9J8: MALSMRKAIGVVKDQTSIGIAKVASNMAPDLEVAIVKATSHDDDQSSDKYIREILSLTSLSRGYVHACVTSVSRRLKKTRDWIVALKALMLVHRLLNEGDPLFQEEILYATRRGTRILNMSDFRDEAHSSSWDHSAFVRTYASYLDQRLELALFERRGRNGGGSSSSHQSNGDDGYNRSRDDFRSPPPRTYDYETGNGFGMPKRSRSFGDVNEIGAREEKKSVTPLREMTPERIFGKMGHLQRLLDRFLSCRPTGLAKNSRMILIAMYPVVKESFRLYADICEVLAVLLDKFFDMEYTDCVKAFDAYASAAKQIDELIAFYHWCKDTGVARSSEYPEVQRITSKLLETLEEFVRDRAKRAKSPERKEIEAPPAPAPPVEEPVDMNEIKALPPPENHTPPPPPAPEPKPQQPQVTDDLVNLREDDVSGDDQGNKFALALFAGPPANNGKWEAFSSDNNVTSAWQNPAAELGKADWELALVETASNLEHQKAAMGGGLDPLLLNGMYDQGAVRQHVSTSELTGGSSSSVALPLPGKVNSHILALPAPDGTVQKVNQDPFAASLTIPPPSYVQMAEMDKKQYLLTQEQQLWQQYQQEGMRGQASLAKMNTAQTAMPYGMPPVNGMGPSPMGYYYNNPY
UniProt F4KIH8: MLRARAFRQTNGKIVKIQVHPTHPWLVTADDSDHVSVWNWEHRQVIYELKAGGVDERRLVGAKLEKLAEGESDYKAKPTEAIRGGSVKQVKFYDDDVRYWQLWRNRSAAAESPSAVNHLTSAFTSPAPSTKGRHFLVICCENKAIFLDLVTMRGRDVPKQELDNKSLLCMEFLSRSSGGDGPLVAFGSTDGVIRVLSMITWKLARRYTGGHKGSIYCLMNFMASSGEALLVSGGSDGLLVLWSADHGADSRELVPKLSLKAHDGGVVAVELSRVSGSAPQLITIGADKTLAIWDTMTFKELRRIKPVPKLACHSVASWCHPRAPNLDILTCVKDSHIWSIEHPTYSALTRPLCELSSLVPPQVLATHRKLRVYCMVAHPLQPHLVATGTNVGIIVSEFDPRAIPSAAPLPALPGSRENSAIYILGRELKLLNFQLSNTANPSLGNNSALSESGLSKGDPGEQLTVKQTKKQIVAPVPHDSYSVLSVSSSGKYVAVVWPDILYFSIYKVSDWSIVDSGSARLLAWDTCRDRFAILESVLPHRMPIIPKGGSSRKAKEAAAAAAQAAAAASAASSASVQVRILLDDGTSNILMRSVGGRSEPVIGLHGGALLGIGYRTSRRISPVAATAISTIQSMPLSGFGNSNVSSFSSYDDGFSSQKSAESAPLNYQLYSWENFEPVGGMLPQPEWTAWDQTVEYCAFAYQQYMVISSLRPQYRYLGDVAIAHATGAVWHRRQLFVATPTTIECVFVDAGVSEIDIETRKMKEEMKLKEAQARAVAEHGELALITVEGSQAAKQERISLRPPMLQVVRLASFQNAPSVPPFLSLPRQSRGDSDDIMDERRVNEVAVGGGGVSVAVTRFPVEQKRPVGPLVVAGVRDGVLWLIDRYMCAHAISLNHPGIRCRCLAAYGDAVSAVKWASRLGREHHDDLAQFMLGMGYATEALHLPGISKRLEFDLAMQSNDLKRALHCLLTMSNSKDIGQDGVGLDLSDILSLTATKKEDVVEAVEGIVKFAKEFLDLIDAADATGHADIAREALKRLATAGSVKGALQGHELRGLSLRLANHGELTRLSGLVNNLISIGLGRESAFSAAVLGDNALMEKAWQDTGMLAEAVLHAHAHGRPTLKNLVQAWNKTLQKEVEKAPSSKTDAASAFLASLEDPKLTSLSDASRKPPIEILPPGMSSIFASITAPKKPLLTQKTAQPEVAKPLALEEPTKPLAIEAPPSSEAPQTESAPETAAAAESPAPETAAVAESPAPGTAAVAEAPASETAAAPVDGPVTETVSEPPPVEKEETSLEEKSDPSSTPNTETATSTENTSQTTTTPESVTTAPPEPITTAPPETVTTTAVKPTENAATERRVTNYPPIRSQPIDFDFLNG

Substance | binding [1] | binding [2] | binding [3] | binding [4] | binding [5] | binding [6] | binding [7]
AtEH1/Pan1 (from UniProt F4HUN9) | binds | binds | binds | binds | binds | binds | –
EFR-GFP (from UniProt C0LGT6 25-1031) (receptor) | – | – | – | – | – | – | no binding
PICALM4B (CAP1) (from UniProt Q8S9J8) | binds | – | – | – | – | – | –
TML (from UniProt Q9FKM4) | binds | binds | binds | binds | binds | binds | –
TWD40-2 (from UniProt F4KIH8) | binds | binds | binds | binds | binds | – | –

Reference: doi:10.1101/701425
